Assay results published in PubChem BioAssay AID493014 (National Center for Advancing Translational Sciences (NCATS), 2011).
The list shows a part of the results. Further columns of the screen follow, without active or inactive calls. Compounds called inactive in the main read-out are mostly missing here. Potencies come from curve fits of mixed quality, noted in brackets.

Experiment: qHTS Assay to Find Inhibitors of Chronic Active B-Cell Receptor Signaling
Conditions: ABC-DLBCL IkBa-CBG/CBR reporter, luminescence ratio (green luciferase fused to IkBa over red control in TMD8 lymphoma cells), 4 h
Procedure, shortened: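 Cell line TMD8 (human ABC DLBCL), stably expressing tet-inducible CBG68-IkBa fusion and CBR; IMDM/0.5% FBS; cpd up to 46 uM; dox induction, 4 h, 37C/5% CO2; dual luminescence; green/red ratio; MG132 control.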

[1] = measured here: CBR red luminescence, cell number
[2] = measured here: IkBa-CBG green luminescence

| SMILES | AC50 [1] | AC50 [2] |
| --- | --- | --- |
| Cc1ccc(-c2cc(N)n(-c3ccccc3)n2)cc1 | 20 µM [falling, partial curve, poor fit] | – |
| C=CCOc1ccc(CNn2c(C)n[nH]c2=S)cc1OC | 1.26 µM [falling, full curve] | – |
| c1cncc(CNCc2ccco2)c1 | 0.112 µM [rising, full curve, poor fit] | – |
| C=CCOc1ccc(C2=NO[C@@H]3[C@@H]4C[C@@H]([C@H]5C(=O)N(C)C(=O)[C@@H]45)[C@H]23)cc1 | 6.31 µM [rising, partial curve, poor fit] | – |
| Cc1ccc2c(CC(=O)Nc3c(C)n(C)n(-c4ccccc4)c3=O)coc2c1 | 29.1 µM [rising, single point] | – |
| Cn1nnnc1SCc1ccccc1F | 9.2 µM [rising, partial curve, poor fit] | – |
| C[C@H](NC(=O)c1nc[nH]c1C(=O)N1CCc2ccccc2C1)C(=O)OC(C)(C)C | 35.5 µM [rising, single point] | – |
| O=C1C(Cl)=C(Nc2ccccc2O)C(=O)N1CCc1ccccc1 | 8.2 µM [falling, partial curve] | – |
| O=C(NCC(=O)N(c1cccnc1)C(C(=O)NC1CCCC1)c1ccc(F)cc1)c1ccco1 (configuration not stated) | 2.82 µM [rising, single point] | – |
| COc1cccc(CNc2cc(CSc3ccc(Cl)cc3)nc(C)n2)c1 | 2.59 µM [falling, full curve, poor fit] | – |
| N#CCCN(Cc1cccnc1)C(=O)Nc1ccc(Cl)c(Cl)c1 | 32.6 µM [rising, single point] | – |
| Clc1cccc(CN2CCC(Cc3ccccc3)CC2)c1 | 11.2 µM [rising, partial curve, poor fit] | – |
| COc1cc2c(cc1OC)C(C)N(C(=O)c1cc(C)on1)CC2 (configuration not stated) | 11.2 µM [rising, partial curve] | 10 µM [falling, partial curve] |
| CCc1ccc(/C=C2/SC(=S)N(CCC(=O)Nc3ccc(C(=O)O)cc3)C2=O)cc1 | 2.51 µM [falling, partial curve, poor fit] | – |
| C=C(C)C1CC=C(C)/C(=N/NC(=O)c2ccoc2C)C1 (configuration not stated) | 23.1 µM [falling, single point] | – |
| O=[N+]([O-])c1ccc(N=Nc2ncc[nH]2)cc1 | 6.31 µM [falling, full curve, poor fit] | – |
| CN(C)/C=N/C1=C(C#N)C(c2ccc(Br)cc2)c2ccc3ccccc3c2O1 (configuration not stated) | 0.447 µM [rising, full curve, poor fit] | – |
| CCN(CC)S(=O)(=O)c1cc([N+](=O)[O-])ccc1N=Nc1c(O)[nH]c2ccccc12 | 20.6 µM [rising, partial curve, poor fit] | – |
| CCOc1cc(NC(=S)NCCCN2CCOCC2)c(OCC)cc1NC(=O)C(C)C | 20.6 µM [rising, single point] | – |
| CC1CC(C)(C)Nc2ccc(OC(=O)c3ccco3)cc21 (configuration not stated) | 7.94 µM [falling, partial curve] | – |
| CC1(c2ccc(Cl)cc2)NC(=O)N(CC(=O)NCc2ccc(F)cc2)C1=O (configuration not stated) | 35.5 µM [falling, single point] | – |
| NS(=O)(=O)c1ccc(CCNC(=O)c2ccc(C#CC3(O)CCCCC3)cc2)cc1 | 6.31 µM [rising, single point] | – |

| SMILES | AC50 [1] | AC50 [2] |
| --- | --- | --- |
| CCOC(=O)C1=C(N)Oc2cc(O)ccc2C1c1ccc(C)cc1 (configuration not stated) | 12.6 µM [falling, partial curve, poor fit] | – |
| C/C(=N\OCC(=O)OCC(=O)NCc1ccccc1)c1ccc2c(c1)OCO2 | 20.6 µM [rising, single point] | – |
| O=C(NC1=NCCS1)c1ccc2c(c1)C(=O)N(Cc1ccco1)C2=O | 32.6 µM [falling, single point] | – |
| O=C(NN=C1CCCCCC1)c1ccc(Br)o1 | 18.4 µM [falling, single point] | – |
| CCC(=O)NC(=S)Nc1ccc(NC(=O)c2ccccc2[N+](=O)[O-])cc1 | 20.6 µM [falling, single point] | – |
| CCOc1cc(C=O)cc(Br)c1OCC(=O)NCCc1ccccc1 | 35.5 µM [falling, single point] | – |
| N#C/C(=C\c1ccc(F)cc1)c1nc(-c2ccco2)cs1 | 0.82 µM [rising, full curve] | – |
| CCOc1ccc(C(=O)Nc2ccc3c(c2)C(=O)NC3=O)cc1 | 0.316 µM [falling, full curve] | – |
| CC1=[N+](C)c2ccc3ccccc3c2C1(C)C | 0.461 µM [rising, full curve, poor fit] | – |
| N#C/C(=C/c1ccc(N2CCCCCC2)o1)c1ccc(Cl)cc1 | 2.31 µM [falling, partial curve, poor fit] | – |
| CCc1nc2ccc(C(=O)N3CCN(c4cccc(Cl)c4)CC3)cc2nc1CC | 15.8 µM [falling, single point] | – |
| CCOC(=O)C1(CC2CCCCO2)CCN(Cc2c(C)cc(C)cc2-n2cccn2)CC1 (configuration not stated) | 35.5 µM [falling, single point] | – |
| N/C(=N\OC(=O)C12CC3CC(CC(C3)C1)C2)c1ccccc1 | 3.98 µM [falling, partial curve, poor fit] | – |
| O=C(O)c1ccc(NC(=O)c2ccc(COc3ccc(Cl)cc3)o2)cc1 | 0.112 µM [rising, full curve, poor fit] | – |
| Cn1ncc([N+](=O)[O-])c1C(=O)Nc1ccc(-c2ccccc2)cc1 | 0.178 µM [rising, full curve, poor fit] | – |
| CCC(=O)N(CCC(Cc1ccccc1)c1ccco1)Cc1ccco1 (configuration not stated) | 35.5 µM [falling, single point] | – |
| O=C(CC1NC(=S)NC1=O)c1ccc(Cl)cc1 (configuration not stated) | 5.62 µM [rising, full curve, poor fit] | – |
| CCn1ccnc1CN(C)C(=O)c1cc(COc2ccccc2SC)on1 | 5.62 µM [rising, single point] | – |
| COc1cc(CC(=O)OCC(=O)NC(C)c2ccccc2)cc(OC)c1OC (configuration not stated) | 16.4 µM [rising, partial curve, poor fit] | – |
| COc1ccc2[nH]c(-c3cccc(F)c3)cc(=O)c2c1 | 2.31 µM [rising, partial curve, poor fit] | 5.8 µM [falling, single point] |
| O=C(CNC(=O)c1ccc(Cl)cc1)N/N=C/c1cccnc1 | 17.8 µM [rising, single point] | – |
| CCOc1nc(NCCO)nc(NCCC2=CCCCC2)n1 | 4.11 µM [rising, full curve, poor fit] | – |

| SMILES | AC50 [1] | AC50 [2] |
| --- | --- | --- |
| CCOC(=O)Cc1csc(N/N=C\c2ccccc2OC)n1 | 25.1 µM [falling, single point] | – |
| Cc1c(Br)c(C(F)(F)F)nn1CC(=O)NCC1CCCO1 (configuration not stated) | 15.8 µM [rising, partial curve, poor fit] | – |
| CCCc1cc(N2CCCC2)n2nc(C)c(-c3ccccc3)c2n1 | 1.16 µM [rising, full curve, poor fit] | – |
| CCN1c2ccccc2-c2nc3ccccc3n2C1c1ccncc1 (configuration not stated) | 14.1 µM [falling, partial curve] | – |
| COc1ccc(-c2nnc(SCC(C)C)o2)cc1 | 12.6 µM [falling, single point] | – |
| NC(=O)CC(NC(=O)Cc1ccc(Br)cc1)c1ccc(NC2CC3CCC2C3)c([N+](=O)[O-])c1 (configuration not stated) | 15.8 µM [falling, single point] | – |
| CCCN1C(=O)SC(CC(=O)Nc2ccccc2C)C1=O (configuration not stated) | 29.1 µM [falling, single point] | – |
| NS(=O)(=O)c1ccc(CCNCC(=O)N2CCC(Cc3ccccc3)CC2)cc1 | 17.8 µM [falling, partial curve, poor fit] | – |
| COc1ccc(NC(=O)c2ccccc2OCc2c(C)noc2C)cc1OC | 2.82 µM [rising, full curve, poor fit] | – |
| CC12C(=O)N(c3ccccc3)C(=O)C1C(c1ccccc1)N1CCCN12 (configuration not stated) | 11.2 µM [rising, partial curve, poor fit] | – |
| Nc1nnc(SCC(=O)Nc2cc(F)ccc2F)s1 | 5.17 µM [rising, full curve] | – |
| CC(/C=C1\SC(=S)N(CCC(=O)Nc2cccc(C(=O)O)c2)C1=O)=C\c1ccccc1 | 11.2 µM [falling, partial curve, poor fit] | – |
| COc1ccc(C2C(C(C)=O)=C(O)C(=O)N2CCc2c[nH]c3ccccc23)cc1OC (configuration not stated) | 25.9 µM [falling, partial curve, poor fit] | – |
| CCOC(=O)Cc1csc(NC(=O)CCCc2ccccc2)n1 | 35.5 µM [falling, single point] | – |
| CCc1ccccc1OCC(=O)Nc1nc(-c2cccnc2)cs1 | – | 22.4 µM [falling, single point] |
| Cc1cc(C)n(-c2cc(Oc3ccccc3)ncn2)n1 | 2.31 µM [rising, full curve] | – |
| Cc1nccn1CCC1CCCCN1C(=O)CCc1nnc(-c2ccsc2)o1 (configuration not stated) | 1.26 µM [rising, full curve, poor fit] | – |
| O=C(Nc1cccc(NC(=O)c2cccc(Cl)c2)c1)c1cccnc1 | 1.58 µM [falling, full curve, poor fit] | – |
| CC(=O)Nc1ccc(NC(=O)c2ccccc2F)cc1 | 11.6 µM [falling, partial curve, poor fit] | – |
| Cc1onc(-c2c(F)cccc2Cl)c1C(=O)OCc1cnc(Cl)s1 | 3.98 µM [rising, full curve, poor fit] | – |
| Cc1ccc(C(C(=O)NC2CCCCC2)N(Cc2ccco2)C(=O)Cc2c[nH]c3ccccc23)o1 (configuration not stated) | 29.1 µM [falling, single point] | – |

Random excerpt: four records from the list, in no set order.

| SMILES | AC50 [1] | AC50 [2] |
| --- | --- | --- |
| Cc1onc(-c2c(F)cccc2Cl)c1C(=O)OCc1cnc(Cl)s1 | 3.98 µM [rising, full curve, poor fit] | – |
| COc1ccc(C2C(C(C)=O)=C(O)C(=O)N2CCc2c[nH]c3ccccc23)cc1OC (configuration not stated) | 25.9 µM [falling, partial curve, poor fit] | – |
| CCc1ccccc1OCC(=O)Nc1nc(-c2cccnc2)cs1 | – | 22.4 µM [falling, single point] |
| CC12C(=O)N(c3ccccc3)C(=O)C1C(c1ccccc1)N1CCCN12 (configuration not stated) | 11.2 µM [rising, partial curve, poor fit] | – |
